The series in a line: general procedure: Fmoc solid-phase peptide synthesis; Wang resin; HBTU; OxymaPure. As to conditions: whole synthesis, RP-HPLC, 214 nm.

HELM strings list residues between dots; [ac] is acetyl, [am] amide, other brackets name non-standard units.

With PEPTIDE1{A.P.L.V.S.W}$$$$V2.0, the “final HPLC purity” value is 99%.

Source of the values: PMC10674851 (Pharmaceuticals, 2023).
